These results are taken from PubChem BioAssay AID493027 (The Scripps Research Institute Molecular Screening Center, 2011).

By UniProt entry, the sequences of proteins in these tests, tags left out. Where a name states a change or a piece, a line headed by the entry shows the natural chain unless it says otherwise.
UniProt O60240: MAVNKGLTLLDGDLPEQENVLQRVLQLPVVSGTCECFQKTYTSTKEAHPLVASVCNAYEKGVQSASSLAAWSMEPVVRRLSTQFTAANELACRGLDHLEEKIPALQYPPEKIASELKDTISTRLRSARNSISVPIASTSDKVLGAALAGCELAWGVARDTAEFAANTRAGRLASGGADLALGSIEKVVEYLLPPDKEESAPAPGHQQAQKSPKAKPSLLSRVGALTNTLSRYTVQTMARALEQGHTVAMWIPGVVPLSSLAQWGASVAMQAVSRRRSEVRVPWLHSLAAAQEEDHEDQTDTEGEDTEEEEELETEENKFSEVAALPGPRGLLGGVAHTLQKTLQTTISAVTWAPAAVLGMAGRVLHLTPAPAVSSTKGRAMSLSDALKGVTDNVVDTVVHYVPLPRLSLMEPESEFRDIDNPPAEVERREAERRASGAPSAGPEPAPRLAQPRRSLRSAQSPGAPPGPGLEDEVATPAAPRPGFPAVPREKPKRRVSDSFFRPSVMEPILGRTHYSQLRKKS
UniProt Q8WTS1: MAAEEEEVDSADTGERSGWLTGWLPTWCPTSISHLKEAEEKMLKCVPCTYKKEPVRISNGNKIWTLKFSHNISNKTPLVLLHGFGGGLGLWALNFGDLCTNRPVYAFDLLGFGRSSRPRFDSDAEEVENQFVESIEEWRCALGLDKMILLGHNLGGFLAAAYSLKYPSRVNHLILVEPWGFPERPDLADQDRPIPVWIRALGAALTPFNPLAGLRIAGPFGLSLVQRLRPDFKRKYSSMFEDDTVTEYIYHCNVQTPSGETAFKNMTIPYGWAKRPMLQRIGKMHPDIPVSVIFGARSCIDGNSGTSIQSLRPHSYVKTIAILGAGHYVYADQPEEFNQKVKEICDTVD

Several values for one entry are separate records, joined by “and”; a condition that tells them apart may be missing. Identical values can stand only once. About 45 (2%) of roughly 2,000 compounds were called active.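 How the source made its calls: active means inhibition above the screen-wide mean inhibition plus 3 SD (cut at about 44% in these data); inactive means the rest.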 This is one part of the list.

The assay addresses Perilipin-1 (Homo sapiens) + 1-acylglycerol-3-phosphate O-acyltransferase ABHD5 (Homo sapiens) (UniProt O60240+Q8WTS1). Put plainly: ABHD5-PLIN1 interaction inhibitors, pilot screen, cell lysate, split luciferase complementation, luminescence, NIH validation set (AID 493027).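 Further: 0% = DMSO wells with the 100% control not disclosed.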 The following applies: split G. princeps luciferase complementation, 4 h; at 7.9 µM, active compounds read high.
Regarding `CCc1ccc(/C=C2\Oc3cc(OC(=O)N4CCOCC4)ccc3C2=O)cc1`, the inhibition (usually the drop in the measured response relative to a control, in per cent) is inactive: 17.4%.
For the compound `CC1=NN(c2ccccc2)C(=O)C1`, the inhibition is inactive: 0.75%.
With `COc1ccc(S(=O)(=O)NCc2ccco2)c2ccccc12`, the inhibition is inactive: 0.14%.
Then `COc1ccc(CCNC(=O)c2c(O)c3c([nH]c2=O)CCCC3)cc1`, with inactive: 3.26%; and `CCCC(=O)O[C@]1(C(=O)CCl)[C@@H](C)C[C@H]2[C@@H]3CCC4=CC(=O)C=C[C@]4(C)[C@@]3(F)C(=O)C[C@@]21C`, with inactive: -0.82%.
For `CCOc1ccc2ccccc2c1C(=O)N[C@@H]1C(=O)N2[C@@H]1SC(C)(C)[C@@H]2C(=O)O`, the inhibition was inactive: -1.39%.
Turning to `Cn1c(=O)c2c(nc(SCCN3CCCCC3)n2C)n(C)c1=O`, the inhibition was inactive: -12.7%.
Regarding `COc1cc2c(cc1OC)C1(CCCC1)CNC2c1cccc([N+](=O)[O-])c1` (centres undefined), the inhibition is inactive: -7.41%.
In the case of `CCN(CC)CCNC(=O)c1cc(Cl)c(N)cc1OC` it was inactive: 2.4%; in that of `NCCc1cnc[nH]1`, inactive: -3.28% and inactive: -10%; in that of `COc1ccc(OC)c(S(=O)(=O)N2CCCc3ccccc32)c1`, inactive: -0.08%.
Then `NCCCC(=O)O`, with inactive: -0.12%; and `O=C(c1ccccc1)N1CCN(C(=O)c2ccccc2)CC1`, with inactive: -7.73%; and `NC(N)=NC(=O)Cc1c(Cl)cccc1Cl`, with inactive: -5.41%.
In the case of `CC/C(=C(\c1ccc(O)cc1)c1ccc(OCCN(C)C)cc1)c1ccccc1`, the inhibition was inactive: 15.3%.
Regarding `C[C@H](NC(=O)OC(C)(C)C)C(=O)NCC1CCC(C(=O)O)CC1` (some centres undefined), the inhibition is inactive: -11.3%.
As for `COc1cccc(N2CC(O)=C(c3nc4ccccc4c(=O)[nH]3)C2=N)c1`, the inhibition is inactive: 16.4%.
In the case of `NS(=O)(=O)c1cc2c(cc1Cl)NC(C(Cl)Cl)NS2(=O)=O` (centres undefined), the inhibition was inactive: 1.9%.
For the compound `COc1ccc(C(=O)C2CCCCC2=O)cc1` (centres undefined), the inhibition was inactive: -6.92%.
`Cc1ccc(-n2cc(CNCCN3CCOC3=O)c(-c3ccc(F)cc3)n2)cc1`: the inhibition is inactive: -6.45%.
`O=C(CCCn1c(=O)oc2ccccc21)N1CCN(c2ccc(F)cc2)CC1`: the inhibition was inactive: -2.2%.
Turning to `Cc1ccc(C(=O)Nc2ccccc2C(=O)NC(C(=O)O)C(C)C)cc1` (centres undefined), the inhibition was inactive: -1.38%.
Regarding `CCn1c(SCC(=O)c2ccccc2)nc2ccccc2c1=O`, the inhibition is inactive: 2.15%.
Then `CC(=O)O[C@H]1C(=O)[C@@]2(C)[C@H]([C@H](OC(=O)c3ccccc3)[C@]3(O)C[C@H](OC(=O)[C@H](O)C(NC(=O)c4ccccc4)c4ccccc4)C(C)=C1C3(C)C)[C@]1(OC(C)=O)CO[C@@H]1C[C@@H]2O` (some centres undefined), with inactive: 3.2%; and `CC(=O)Oc1cc2oc(=O)cc(C)c2cc1OC(C)=O`, with inactive: -5.71%; and `O=C(NCCC(c1ccccc1)c1ccco1)c1cccs1` (centres undefined), with inactive: 9.41%.
Take `Cn1c2[n+](c3ccc(Cl)cc3c1=O)Cc1ccccc1-2`: the inhibition was inactive: 0.88%.
As for `CC(C)(C)[C@]1(O)CCN2C[C@H]3c4ccccc4CCc4cccc(c43)[C@@H]2C1`, the inhibition was inactive: -0.62%.
Then `CN1[C@@H]2CC[C@H]1CC(OC(=O)C(CO)c1ccccc1)C2` (some centres undefined), with inactive: -16.1%; and `COc1ccc(C2=C(CN(C)C)C(c3ccccc3)c3ccccc3O2)cc1` (centres undefined), with inactive: 4.91%.
As for `CC1Cc2ccccc2N1NC(=O)c1ccc(Cl)c(S(N)(=O)=O)c1` (centres undefined), the inhibition was inactive: -8.02%.
Then `COc1ccc(CNCCC2(C(C)C)CCOC(C)(C)C2)cc1` (centres undefined), with inactive: -6.33%; and `COc1ccc(C2CC(c3c(O)cc(C)oc3=O)=NCCS2)c(OC)c1` (centres undefined), with inactive: 4.66%; and `O=C(Cc1ccccc1[N+](=O)[O-])NCCCN1CCOCC1`, with inactive: -7.14%.
On to `CCOC(=O)c1cccc(C(=O)OCC)n1`, for which the inhibition is inactive: -5.12%.
In the case of `COc1cc(Cl)cc2c1Sc1ccccc1/C2=C/CCN(C)C` it was inactive: 6.32%; in that of `O=C(COc1ccccc1)Nc1ccc2c(c1)C(=O)N(CC1CCCO1)C2=O` (centres undefined), inactive: -14.4%.
For the compound `O=C1C(Cc2c[nH]c3ccccc23)NC(=S)N1Cc1ccccc1` (centres undefined), the inhibition was inactive: -4.43%.
On to `CCOc1ccccc1OCCOc1ccc(F)cc1`, for which the inhibition was inactive: -8.37%.
Regarding `O=C1CC2(CCCC2)CC(=O)N1CCCCN1CCN(c2ncccn2)CC1`, the inhibition was inactive: -11.6%.
With `COc1ccc2c(CC(=O)NCC3CCC(C(=O)O)CC3)cc(=O)oc2c1` (centres undefined), the inhibition is inactive: -2.79%.
Turning to `CC[C@H]1OC(=O)[C@H](C)[C@@H](O[C@H]2C[C@@](C)(OC)[C@@H](O)[C@H](C)O2)[C@H](C)[C@@H](O[C@@H]2O[C@H](C)C[C@H](N(C)C)[C@H]2O)[C@](C)(O)C[C@@H](C)[C@@H]2N[C@@H](COCCOC)O[C@H]([C@H]2C)[C@]1(C)O`, the inhibition is inactive: -7.57%.
For `CC(C)(C)n1c(=O)[nH]c2c(c1=O)CCC2`, the inhibition is inactive: -0.81%.
`COc1ccc(N2C(=O)[C@@H]3Cc4ccccc4CN3C2=O)cc1`: the inhibition is inactive: -7.22%.
On to `CCC(C(=O)OCCN(CC)CC)c1ccccc1` (centres undefined), for which the inhibition is inactive: 38.8%.
On to `CN(C)c1ccc(CNCCC(Cc2ccccc2)c2ccco2)cc1` (centres undefined), for which the inhibition was inactive: -15.2%.
Consider `CCS(=O)(=O)Nc1cc(OC)c(OC)cc1Cc1nccc2cc(OC)c(OC)cc12`, for which the inhibition was inactive: -4.13%.
In the case of `CC(=O)Nc1ccc(S(=O)(=O)c2ccc(N)cc2)cc1` it was inactive: -8.98%; in that of `Fc1ccc(-n2cc(CNCCc3ccccn3)c(-c3ccccc3Cl)n2)cc1`, inactive: 1.9%.
With `CCCN1CCC(NC(=O)Nc2ccc(Br)cc2)CC1`, the inhibition is inactive: -9.54%.
As to `CCn1nc(C(=O)O)c(=O)c2cc3c(cc21)OCO3`, the inhibition is inactive: -13.5%.
Then `COc1cccc(=O)c2c(C)n(CC(=O)c3ccccc3)c(C)c12`, with inactive: 22.5%; and `CC(C(=O)O)c1ccc(N2Cc3ccccc3C2=O)cc1` (centres undefined), with inactive: -8.66%.
Then `Cc1ccc(Cl)c(Nc2ccccc2C(=O)O)c1Cl`, with inactive: 15.7%; and `O=C1ON=C(c2ccc(Cl)cc2)/C1=C/c1ccc(O)cc1`, with active: 82.8%; and `CCN1CCN(c2cc3c(cc2F)c(=O)c(C(=O)O)cn3C2CC2)CC1`, with inactive: -15.2%.
Consider `CC(C)N1C(=O)/C(=C\c2nc3ccccc3c(=O)[nH]2)c2ccccc21`, for which the inhibition is active: 70.2%.
Then `Cc1nnc(NS(=O)(=O)c2ccc(N)cc2)s1`, with inactive: -2.95%.
For `CC(=O)OCC(OC(C)=O)C(OC(C)=O)C(OC(C)=O)C(=O)Nc1cccc(C)c1` (centres undefined), the inhibition is inactive: -6.24%.
In the case of `CC1CC(OC(=O)C(O)c2ccccc2)CC(C)(C)N1C` (centres undefined), the inhibition was inactive: 2.6%.
`CCCOc1ccc(-c2cc(C(=O)NCC3CCCO3)c3ccccc3n2)cc1` (centres undefined): the inhibition was inactive: -2.49%.
As for `O=C(NCCc1c[nH]c2ccccc12)c1cccnc1`, the inhibition is inactive: 3.48%.
Take `COc1ccc(/C=C\c2nc(=O)c3ccccc3o2)cc1`: the inhibition is inactive: 0.84%.
In the case of `CC1(C)O[C@@H]2C[C@H]3[C@@H]4CCC5=CC(=O)C=C[C@]5(C)[C@@]4(F)[C@@H](O)C[C@]3(C)[C@]2(C(=O)CO)O1` it was inactive: -6.78%; in that of `O=C(O)CCCc1ccccc1`, inactive: -0.6%; in that of `Cc1cnc(NC(=O)C2=C(O)c3ccccc3S(=O)(=O)N2C)s1`, inactive: -7.39%.
For the compound `Cc1cccc(C(=O)c2cccc(C)c2)c1`, the inhibition was inactive: -11.8%.
Regarding `O=C(CCC1CCCN(C(=O)c2ccsc2)C1)NCc1ccc(F)c(F)c1` (centres undefined), the inhibition was inactive: -3.63%.
For `COc1cc(C2CC(=O)NC3=C2C(=O)CC(C)(C)C3)ccc1O` (centres undefined), the inhibition is inactive: 4.1%.
Take `N#C/C(=C/c1ccccc1)C(=O)NCc1ccccc1`: the inhibition is active: 53.3%.
Consider `Cc1ccc(N2CCN(C(=S)c3ccc(-c4cccc([N+](=O)[O-])c4)o3)CC2)cc1`, for which the inhibition was inactive: 4.66%.
As for `COc1ccc(-c2cc(=Nc3ccc(C)cc3)c3ccccc3o2)cc1`, the inhibition was inactive: 7.52%.
As to `Cc1ccc(C(=O)NC(=S)NCCCN2CCOCC2)cc1`, the inhibition was inactive: -1.64%.
Consider `O=C(NCCN1CCCCC1)c1c(O)c2ccccc2[nH]c1=O`, for which the inhibition was inactive: -2.32%.
Then `CCN(CC)C1=C(Cl)C(=O)C(Cl)C12OCCO2` (centres undefined), with inactive: -5.32%; and `CC(C)CC(=O)OC1C(N2CCOCC2)c2c(ccc(/C=C/C(=O)N3CCOCC3)c2O)OC1(C)C` (centres undefined), with inactive: 3.66%; and `Nc1cccc2c1nnn2C1OC(CO)C(O)C(O)C1O` (centres undefined), with inactive: -5.44%.
On to `Cc1ccccc1C(=O)Oc1ccc(Sc2ccc(O)cc2)cc1`, for which the inhibition is inactive: -3.79%.
In the case of `CC1(C)CC(NC(=O)C23CCC(C)(C(=O)C2=O)C3(C)C)CC(C)(C)N1` (centres undefined) it was inactive: -3.79%; in that of `N=c1c[n+](N2CCOCC2)[n-]o1`, inactive: -7.07%.
Turning to `CN1CCN(CCCN2c3ccccc3Sc3ccc(Cl)cc32)CC1`, the inhibition was inactive: 13.5%.
As for `COc1cccc2c1OCC1COc3c(c(=O)n(C)c(=O)n3C)C21` (centres undefined), the inhibition is inactive: 0%.
With `O=C(O)C(O)c1ccccc1` (centres undefined), the inhibition is inactive: -10.2%.
As for `COc1ccc(-c2coc3cc(OC(=O)N4CCOCC4)ccc3c2=O)cc1`, the inhibition is inactive: -1.5%.
As for `CC(C)(C)C(=O)N1CCCC1C(=O)O` (centres undefined), the inhibition was inactive: -3.97%.
For the compound `COc1ccc(CCN(C)CCCC(C#N)(c2cc(OC)c(OC)c(OC)c2)C(C)C)cc1OC` (centres undefined), the inhibition is inactive: -7.19%.
As to `CSc1cccc(NC(=O)/C=C/c2ccccc2)c1`, the inhibition is inactive: -0.64%.
Regarding `COc1c2occc2c(OC)c2c(=O)cc(C)oc12`, the inhibition is inactive: -2.56%.
Turning to `CC(C)c1ccccc1OCCNC(=S)NC(=O)c1cccnc1`, the inhibition was inactive: 2.19%.
In the case of `O=c1[nH]c(=O)n(C2CCCO2)cc1F` (centres undefined), the inhibition was inactive: 0.75%.
In the case of `CC(NCCC(c1ccccc1)c1ccccc1)c1ccccc1` (centres undefined), the inhibition was inactive: -1.09%.
Turning to `Oc1ccccc1OCCOc1ccccc1OCCOc1ccccc1O`, the inhibition is inactive: 8.26%.
With `CCOCC(=O)Nc1nc2ccccc2s1`, the inhibition is inactive: -3.63%.
In the case of `CC(C)c1ccc(NC(=O)CNS(=O)(=O)c2ccc(F)cc2)cc1`, the inhibition was inactive: 2.27%.
